Test results published in publication PMC7489219 (Molecular Brain, 2020).
Counter-ions that a name gives are not always drawn.

tested on: T1, primary mouse cortical neurons; assay: cells; parameters: Protection from NMDA-induced (30 uM, 10 min) neuronal death; Hoechst nuclear morphology by automated microscopy; conditions: Cortical neurone, 20 h, read-out: % inhibition, inhibition of NMDA-induced cell death (protection score), 30 min pre-treatment
T1 construct: primary cortical neurons, DIV 10
Method: On DIV 10, compounds were applied to the cells reaching an end concentration of 10 μM. Cells were incubated for 30 min at 37 °C, 5% CO2 before adding NMDA (30 μM). Cells were incubated for another 10 min in the incubator, then washed twice with defined minimal medium containing 10 μM of the respective compound and incubated for an additional 20 h before readout. Untreated (no NMDA) and NMDA-only stimulated wells were treated with 0.1% DMSO. […] After 15 min of incubation at room temperature, cells were washed twice with phosphate buffered saline. […] Dead neurons were identified by amorphous or shrunken nuclei using CellProfiler and CellProfiler Analyst software. For all cell death analyses the experimental unit (N) is defined as an independent experiment using an independent neuronal preparation. For each independent experiment, data from 3 replicate wells (i.e., from 36 images), representing an average of 3000 cells was analyzed per condition. The survival rate S was calculated by dividing the number of living cells by the total number of cells. The survival rate was then used to calculate the protection score according to Scompound−Svehicle/Suntreated−Svehicle×100=%protection , where ‘compound’ refers to compound + NMDA treatment, ‘vehicle’ refers to vehicle + NMDA treatment, and ‘untreated’ refers to DMSO control. […] As a proof of principle, we next used our assay to screen two commercially available drug libraries. In these screens, primary cortical cells were incubated with test compounds at 10 μM concentration for 30 min before addition of 30 μM NMDA. After 10 min NMDA treatment, cells were washed with fresh medium and kept in the presence of test compounds for 20 h until assessment of cell viability. […] This library covers structurally diverse drugs from several fields such as oncology, cardiology, immunology, and neurology/psychiatry.

Point of comparison: `CC(C)OC(=O)C(C)(C)Oc1ccc(C(=O)c2ccc(Cl)cc2)cc1` [Fenofibrate (Tricor, Trilipix)], inhibition at 10 µM -1.71%. Against it:
- CN1C[C@@H]2c3ccccc3Oc3ccc(Cl)cc3[C@H]2C1 (racemic) [Asenapine] — lower, -16.8%
- CNC(=O)c1ccccc1Sc1ccc2c(/C=C/c3ccccn3)n[nH]c2c1 [Axitinib] — higher, 21.7%
- CN1[C@@H]2CCC[C@H]1C[C@@H](NC(=O)c1nn(C)c3ccccc13)C2 [Granisetron HCl] — lower, -7.66%
- O=C(CCCCCCC(=O)Nc1ccccc1)NO [Vorinostat (SAHA)] — higher, 25.4%
